# Test results: paper PMC5996148
# Values joined by “and” are separate entries in the source; they are usually repeats but may differ in a detail not shown here. Identical values can stand only once. The list shows a part of the results.
# How the values were obtained:
# Experiment in all cases: protein microarray (ProtoArray v5.0), streptavidin-Alexa Fluor 647
# Conditions in all cases: 3'-biotin; 20 mM Tris (pH 7.5), 5 mM MgCl2, 100 mM KCl, 0.1% Tween-20, A/T-rich and random oligonucleotide blockers; temperature not stated; high values mean tight binding
# TIMM10 (human) = system: TIMM10 (human)
# TIMM17A (human) = system: TIMM17A (human)
# TIMM8A (human) = system: TIMM8A (human)
# TIMM8B (human) = system: TIMM8B (human)
# TIMP4 (human) = system: TIMP4 (human)
# TINAGL1 (human) = system: TINAGL1 (human)
# TIPIN (human) = system: TIPIN (human)
# TK1 (human) = system: TK1 (human)
# TLE3 (human) = system: TLE3 (human)
# [1] = system: TM2 domain-containing protein 2 (human)
sequence,measurement,setting,value
GGGAGGCTGAGGCAGG [G4-1 biotinylated (PQS2)],binding signal,TIMM10 (human),-0.336 z-score
same,binding signal,TIMM17A (human),-0.333 z-score
same,binding signal,TIMM8A (human),-0.361 z-score
same,binding signal,TIMM8B (human),-0.342 z-score
same,binding signal,TIMP4 (human),-0.233 z-score
same,binding signal,TINAGL1 (human),-0.304 z-score and -0.32 z-score
same,binding signal,TIPIN (human),-0.351 z-score
same,binding signal,TK1 (human),-0.349 z-score
same,binding signal,TLE3 (human),-0.357 z-score and -0.343 z-score
same,binding signal,[1],-0.31 z-score
